Earlier results as cited in US11346820B2, “HPLC-PDA method and uses thereof in phytoestrogen measurement” (The Board Of Regents, The University of Texas System, priority 2019, dated 2022).

conditions: spiked at 1, 10 and 100 μmol/l, n=5, urine and serum

Recoveries after spiking, 100%:
Oc1ccc([C@H]2COc3cc(O)ccc3C2)cc1 (racemic) [Equol]
O=c1c(-c2ccc(O)cc2)coc2cc(O)ccc12 [Daidzein]
O=c1c(-c2ccc(O)cc2)coc2cc(O)cc(O)c12 [Genistein]
